Measured values as given in patent US9283261B2, “Linaclotide compositions” (Forest Laboratories Holdings Ltd., priority 2012, dated 2016).
At least one compound was matched to its structure with a doubt left. Bridge positions count the residues as written; N and C are the ends. Peptide text beside a SMILES is read from it.

Key:
[1] = tested on: adult patients with CC; experiment: double-blind placebo-controlled studies in CC (Study 3 and Study 4); type: in vivo, human; settings: p<0.0001; for patients who had an SBM within 24 hours of taking their first dose: placebo 39%
[2] = tested on: adult patients with IBS-C; experiment: double-blind placebo-controlled studies in IBS-C (Study 1 and Study 2); type: in vivo, human
Experimental: In this regard, the efficacy of oral dosage forms comprising […] for the management of IBS-C was established in two double-blind, placebo-controlled, randomized, multicenter studies in adult patients. A total of 800 patients in Study 1 and 804 patients in Study 2 (overall mean age of 43.9 years [range 18-87 years with 5.3% ≧65 years of age], 90.1% female, 77.4% white, 18.8% black, and 12.0% Hispanic) received treatment with LINZESS 290 mcg or placebo once daily and were evaluated for efficacy. All patients met Rome II criteria for IBS and were required to report a mean abdominal pain score of ≧3 on a 0-to-10-point numeric rating scale, <3 complete spontaneous bowel movements (CSBMs; a CSBM is a spontaneous bowel movement [SBM] that is associated with a sense of complete evacuation; an SBM is a bowel movement occurring in the absence of laxative use), and ≦5 SBMs per week during a 2-week baseline period. The study designs were identical through the first 12 weeks, and thereafter differed only in that Study 1 included a 4-week randomized withdrawal (RW) period, and Study 2 continued for 14 additional weeks (total of 26 weeks) of double-blinded treatment.
Efficacy of the oral dosage form of linaclotide was assessed using responder and change-from-baseline endpoints. Results for endpoints were based on information provided daily by patients. An abdominal pain responder was a patient who had ≧30% reduction in mean abdominal pain from baseline in a given week for ≧6 out of 12 weeks of the treatment period. […] To be a combined responder, a patient had to meet both abdominal pain and CSBM weekly responder criteria in the same week for ≧6 out of 12 weeks of the treatment period.

Structure (SMILES): C[C@@H]1NC(=O)[C@@H]2CCCN2C(=O)[C@H](CC(N)=O)NC(=O)[C@@H]2CSSC[C@H](N)C(=O)N[C@H]3CSSC[C@H](NC1=O)C(=O)N[C@@H]([C@@H](C)O)C(=O)NCC(=O)N[C@H](C(=O)N[C@@H](Cc1ccc(O)cc1)C(=O)O)CSSC[C@H](NC(=O)[C@H](Cc1ccc(O)cc1)NC(=O)[C@H](CCC(=O)O)NC3=O)C(=O)N2 [linaclotide] (H-CCEYCCNPACTGCY-OH; disulfide 1-6, 2-10, 5-13 (inferred); N-terminus and C-terminus assumed)
- patients who had an SBM within 24 hours of taking their first dose ([1]; 145 mcg): Sixty-seven
- patients who had an SBM within 24 hours of taking their first dose ([1]; 290 mcg): 57%
- change-from-baseline improvements in abdominal discomfort, bloating, stool frequency, consistency, straining vs placebo ([1]; either dose (145 or 290 mcg)): statistically significantly (p<0.0001) greater improvements
- time of maximum effect on CSBM frequency ([2]; 290 mcg): ≤ 1 Week
- proportion of patients who were responders (abdominal pain, CSBM, combined) vs placebo ([2]; 290 mcg once daily, 12 weeks): statistically significantly higher than with placebo
- change-from-baseline improvements in abdominal symptoms and bowel function vs placebo ([2]; 290 mcg once daily, p<0.0001): statistically significantly (p<0.0001) greater improvements
- patients who had an SBM within 24 hours of taking their first dose ([2]; 290 mcg, placebo 42%, p<0.0001): Sixty-seven
- separation from placebo in abdominal pain over the treatment period ([2]; 290 mcg, present at first week, sustained across 26 weeks, p<0.001): statistically significant separation from placebo
